Measured values: PubChem BioAssay AID1508600 (Functional Genomics Laboratory (NCATS/FGL), 2020)
The campaign covered roughly 53,000 sequences. About 3,700 (7%) were called active.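 Rule for the calls: active = gene knockdowns whose robust z-score for IL-1 alpha signal is at least 2 or at most -2, so actives lie on both sides; inactive = the rest.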 Some of the results follow.

Experiment: Components of the Cytosolic LPS Sensing Pathway: Gene Identification via Genome-wide siRNA Screen;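 note: robust z of the log signal after scaling to non-targeting control siRNA wells of the plate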
Details: RAW264.7 macrophages, IL-1a HTRF, actives lie on both sides, screened at 100 nM (by protocol), cells primed 5 h with Pam3CSK4 first
Procedure, shortened: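 Read-out: IL-1a HTRF on supernatant, divided by plate negative-control median ×100, log-transformed and converted to robust z-score. Cells were RAW264.7 given 100 nM siRNA, Pam3CSK4-primed 5 hours, then LipidA-transfected 24 hour.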

Sequence	z-score
GGAGCCUGUUCCAGAAUUGTT against Bcl7c	inactive: 0.716
CCUAGCUCUCUAGAAUAGATT against Msn	inactive: 1.43
GCCCUAUCGUUCUGAAAUATT against Galc	inactive: 0.295
GGAGGAAGAAUAUGGAAAATT against Ptprz1	inactive: 0.204
GGUCCUUUGAUGCUGACUGTT against Sfrp4	active: -2.07
GCAGGAGAACAAAUCUAAUTT against Arhgap11a	inactive: -1.65
GCCCUACCAAAAGGAUGAUTT against Cfap300	active: -2.02
GCACUCACCAGUGAGUCAUTT against Cldn6	inactive: -0.602
CCUGAUAAGUAUGAGUCCATT against Mag	inactive: -0.709
GGAACAAAGACUUCAAAGATT against Olfr323	inactive: -0.249
GGCGAUGUAAUGGAUGUUATT against Nck1	inactive: -0.142
GGAGGUUUAAUAAAGGCUUTT against Gcn1	inactive: 1.41
GGUGAUCUGUAGGAACACATT against 9530053A07Rik	inactive: -0.546
GCAACUUGACCAGGAAUAUTT against Ddx52	inactive: 1.94
GGAGAUGAGGUGAAGUGGATT against Acsm4	inactive: -0.213
CCUUCUUGUGAAUUUACCUTT against Rps6kc1	inactive: -0.0992
GGAGGACCAUUGAAUUAUGTT against Ccdc184	inactive: 0.22
GGCUGUGGAAAUGUUUAUUTT against Cirbp	inactive: 0.707
GGGUUGAUUAGUGGAGUGATT against H2-Bl	inactive: -0.232
GGAAAAAAUGGAAAACUGGTT against Polr1b	inactive: -0.965
GGGAUUUUCAAAGUGAGAATT against Pmaip1	inactive: -0.502
CGUCUGUUUACCUCAUGAATT against Arid3a	inactive: -0.769

Quoted from the listing.
Entry for GGAACAAAGACUUCAAAGATT against Olfr323 under z-score: inactive: -0.249
Entry for GGGAUUUUCAAAGUGAGAATT against Pmaip1 under z-score: inactive: -0.502

Carrying on:

Sequence	z-score
GGUCAAUCUUUGGAGUAUUTT against Stk39	inactive: -0.129
CCAGAGGUAUUGAGAGUAATT against Apobr	inactive: -0.651
GGUUUGUCAGGUUCUAAAATT against Atf1	active: 2.34
GGAGCUGCGCAGUUUAGAATT against Rab24	inactive: 1.29
GGUGAAAGGUUCUUUAACCTT against Lman1l	inactive: 0.079
GCUCAGCUCAAAUGCGGUUTT against 4931431C16Rik	inactive: 0.992
CUGUGGACUUCCCUAAGAATT against Nms	inactive: -0.775
GGGAGCAAAUGUAAUUUAUTT against Tbpl1	inactive: 0.842
GCUAGGAUUAAUGAGGAAATT against Cul3	inactive: 0.318
GGAGAAACCAAAAUGGAAATT against Ubtd2	inactive: -0.57
GGAUUCAUAACAAAACGAGTT against Tmem178	inactive: 1.53
GGUUUUGAAUACAAAAAGGTT against Copg2	inactive: -0.839
GCACUUUGACAUUUUGGUATT against Arl4c	inactive: -0.0352
GGACCAUCACACACAUUGATT against Mrap	inactive: 1.08
GCUAGUGAUACAAUGUUUUTT against 9630028B13Rik	inactive: 0.738
GGAGGAAGACCUGAAGAAGTT against Gck	inactive: -1.07
GGCCAUAGCAUCUUGUUCUTT against Supt4a	inactive: 1.45
GGAAAAGGAAACCCAGAGCTT against Tdg	active: -2.4
CGCGGAGUCACUACUAGAGTT against Klhl25	inactive: 0.28
CCGGGAAACCAACAAAUCATT against Rbmxl1	active: 2.19
GGGAUGAAUUGGUUGUUUATT against Large1	inactive: 0.838
GGAUCCACAACUCCAGCUUTT against 3300002I08Rik	inactive: 0.414

Sequence	z-score
GGUUUAUCUAUCCAGUUUUTT against Pigb	inactive: -0.464
CCUUCCUAUGUGAUAACCGTT against Nlrp4c	inactive: 0.474
CCCAGUAUCAGACUAUCAUTT against Inpp4a	inactive: -0.178
GGGAUUGUCAUAGUAACAUTT against Phyhip	inactive: 1.11
GCAUUUACAUUGGAUUAGGTT against Ubxn7	inactive: 0.35
CCCUGGGACUUUCCUAGUGTT against Glt8d2	inactive: -0.537
GGAGUAUUUCCAAACCUAUTT against Sdr9c7	inactive: 0.828
GCAGUUUGCACGAGAUCGATT against Ppp1r15a	inactive: -0.62
GGGAUUUGAGUUCUGGAGCTT against Fbxo44	inactive: -0.56
GGAAUCAUAUAGACAGGUCTT against Smurf2	inactive: -1.15
GCUGGGAGUAAAAUUGACUTT against Cenpj	inactive: -0.65
CCCAGGAGUUUAGAUGUAUTT against C1qtnf6	inactive: -0.242
GGAGAAAAUCACUUCUCCATT against Smarca1	inactive: 0.041
GGAUGACGGUAAAAUGUUUTT against Hnrnpdl	inactive: 1.07
GGAAGUGUGUACCACAUCUTT against Atg13	inactive: -0.211
GGUUCUUCAAUGGCAUUGGTT against Neil1	inactive: -1.91
GGAACUGGAAGAGAAUGAGTT against Sdc4	inactive: 0.862
GGAGGUGUGAUCCUAGGCUTT against Slc11a1	inactive: -0.643
GGUUCACCUGACCUGUUAGTT against Itgad	inactive: -0.332
GGACCUAUGCGUUUCUGGUTT against Medag	inactive: -0.0354
GGAUGGUACUUUUUUGGUCTT against Clnk	inactive: -0.233
GGAAGUGAAGACCUUCUUCTT against St3gal4	inactive: -0.898

Quoted from the listing (seven entries):
Sequence	z-score
CCCUGGGACUUUCCUAGUGTT against Glt8d2	inactive: -0.537
GGAGUAUUUCCAAACCUAUTT against Sdr9c7	inactive: 0.828
GCAGUUUGCACGAGAUCGATT against Ppp1r15a	inactive: -0.62
GGGAUUUGAGUUCUGGAGCTT against Fbxo44	inactive: -0.56
GGAAUCAUAUAGACAGGUCTT against Smurf2	inactive: -1.15
GCUGGGAGUAAAAUUGACUTT against Cenpj	inactive: -0.65
CCCAGGAGUUUAGAUGUAUTT against C1qtnf6	inactive: -0.242

(list continues)

Sequence	z-score
GGACCUGAAGUGUUUAGUCTT against Magoh	inactive: -1.92
CCACACGUGUUUCAAAAUGTT against Parp8	inactive: 0.297
GCACUGCCGGGAGUACUUATT against 5330438D12Rik	inactive: -0.287
GGAUCUUCUUUGUUGGUGCTT against Vmn1r6	inactive: -0.462
GGCCAGACCAAAAUCAAGCTT against Shox2	inactive: -1.79
GGUGAUGGAAAUAAACUACTT against Dhrs7b	inactive: 1.44
GGAAGGAGACACAGAAGAGTT against Marcksl1	inactive: 0.491
GGAAAGCUUUCUUCACCUGTT against Olfr206	inactive: -1.73
GGAAUAAUGAGGUUAUUGATT against Olfr695	inactive: 0.459
GAGAUAAGAUGGGAAAAAATT against Ssbp2	inactive: -0.338
GCCAUAACCGACUACGAGATT against Tsku	inactive: 0.158
GCAGCUUGUAUGCAGCACUTT against Fam111a	inactive: -0.208
GAAGCAGGCCUGGGAUCUUTT against Vmn1r41	active: 2.01
GGUAUAUGCGGAUCCUGAUTT against Limk2	inactive: -0.251
GGAGAGACAGUUGUACACGTT against Sigmar1	inactive: -0.144
GGCACUAAUGGAGAGACUGTT against Nr6a1	active: 3.53
GGUGUCCAAGAUAAUUUGUTT against Gusb	inactive: -0.547
GCCAUCAUACUGUCACCAGTT against Sys1	inactive: 0.758
GGCAUUGGUGAAUCAUAUGTT against Olfr51	inactive: 0.0319
GGGAAAGUGACUCCUGCUATT against Exo5	inactive: 0.208
GGGAAAAUAACGUGACUGATT against Olfr1270	inactive: 0.167
GCUCAACUUACGUUCACUCTT against Vps72	active: -2.53

Sequence	z-score
GGUGUUCCUCAUGGUGACCTT against Tmem161a	inactive: 0.238
GGUAUUGAGUGAUAACUACTT against Klhdc7a	inactive: 1.29
GGUUAGUAUGUAGCUCCCATT against Olfr982	inactive: -0.401
CCUGCUCUAUGGCAGAACGTT against Nkx2-4	inactive: 0.992
GGCACACUUGUGUAAUAUUTT against Nop16	inactive: -0.121
GGAGUCUUUCAUUGAAGAATT against Snx12	inactive: -0.0406
GCAAUUGCGUAUCGUAAAUTT against Epha4	inactive: -0.0039
GCUGAAGCAUACAUUUGUGTT against Tas2r137	inactive: -0.226
GGAAUAGUGGCUUCUUUUATT against Rsph3a	inactive: -0.00182
GGACAAACUGGUCAUCGGGTT against Mrps28	inactive: 1.28
GGUUAUUUGGAAGUGCUACTT against Esx1	active: 2.81
GGUAGACAAGAUCAUCGGATT against Dsc3	inactive: 0.711
CCAUUUCUUUCAGUGGCUGTT against Olfr48	inactive: -0.47
GCAAAUCGAUAUCAAACACTT against Slc30a1	inactive: -0.512
CGUCAAGAUCAAUAACUUGTT against Gm4788	inactive: 0.508
GGUGGUUGAGGAAUGUAAGTT against Kifap3	inactive: -0.126
GGCUCUAUGUCUUUGGAGGTT against Klhdc1	inactive: -0.438
GGAGAGUUCAGACAAGGCATT against Irx2	inactive: -0.0732
